In the supplement of paper PMC10849652:
Some of the results follow.

Chains of the proteins cited; added tags and fusions are not shown. Lines headed by an entry give the natural chain unless they say otherwise; changes in a name come on top.
UniProt Q96B01: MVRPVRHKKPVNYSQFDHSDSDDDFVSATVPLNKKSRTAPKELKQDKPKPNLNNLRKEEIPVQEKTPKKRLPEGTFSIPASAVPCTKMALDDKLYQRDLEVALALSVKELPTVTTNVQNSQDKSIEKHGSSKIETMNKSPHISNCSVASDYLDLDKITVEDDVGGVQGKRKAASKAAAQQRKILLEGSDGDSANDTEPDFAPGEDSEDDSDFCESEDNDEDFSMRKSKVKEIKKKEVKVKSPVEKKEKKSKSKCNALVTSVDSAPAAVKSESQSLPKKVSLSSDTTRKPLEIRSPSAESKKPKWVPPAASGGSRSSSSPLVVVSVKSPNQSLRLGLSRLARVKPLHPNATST
UniProt P98175: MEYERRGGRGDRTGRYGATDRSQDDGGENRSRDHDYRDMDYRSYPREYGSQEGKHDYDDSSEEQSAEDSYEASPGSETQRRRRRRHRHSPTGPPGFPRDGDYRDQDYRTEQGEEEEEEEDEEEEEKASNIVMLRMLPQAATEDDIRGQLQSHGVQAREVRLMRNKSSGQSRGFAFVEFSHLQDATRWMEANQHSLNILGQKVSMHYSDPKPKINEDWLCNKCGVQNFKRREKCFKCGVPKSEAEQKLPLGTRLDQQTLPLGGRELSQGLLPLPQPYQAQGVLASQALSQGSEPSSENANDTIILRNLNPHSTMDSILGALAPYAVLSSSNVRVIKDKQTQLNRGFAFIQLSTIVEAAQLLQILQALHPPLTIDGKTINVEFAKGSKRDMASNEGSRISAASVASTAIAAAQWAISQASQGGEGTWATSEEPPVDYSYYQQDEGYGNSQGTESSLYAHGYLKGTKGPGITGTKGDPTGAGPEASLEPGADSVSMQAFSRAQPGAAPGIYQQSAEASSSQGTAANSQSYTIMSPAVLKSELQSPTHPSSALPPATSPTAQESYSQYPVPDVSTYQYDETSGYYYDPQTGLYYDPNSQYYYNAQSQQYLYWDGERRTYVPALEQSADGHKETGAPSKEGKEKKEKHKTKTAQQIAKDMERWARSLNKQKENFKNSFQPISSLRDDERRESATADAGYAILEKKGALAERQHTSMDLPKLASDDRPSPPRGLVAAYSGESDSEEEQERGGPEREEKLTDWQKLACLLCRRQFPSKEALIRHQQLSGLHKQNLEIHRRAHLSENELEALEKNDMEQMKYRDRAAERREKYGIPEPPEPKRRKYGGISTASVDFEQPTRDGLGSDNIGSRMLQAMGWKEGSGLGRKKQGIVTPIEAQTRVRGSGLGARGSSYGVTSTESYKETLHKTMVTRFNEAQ
UniProt Q9UJ41, whole entry, looked up: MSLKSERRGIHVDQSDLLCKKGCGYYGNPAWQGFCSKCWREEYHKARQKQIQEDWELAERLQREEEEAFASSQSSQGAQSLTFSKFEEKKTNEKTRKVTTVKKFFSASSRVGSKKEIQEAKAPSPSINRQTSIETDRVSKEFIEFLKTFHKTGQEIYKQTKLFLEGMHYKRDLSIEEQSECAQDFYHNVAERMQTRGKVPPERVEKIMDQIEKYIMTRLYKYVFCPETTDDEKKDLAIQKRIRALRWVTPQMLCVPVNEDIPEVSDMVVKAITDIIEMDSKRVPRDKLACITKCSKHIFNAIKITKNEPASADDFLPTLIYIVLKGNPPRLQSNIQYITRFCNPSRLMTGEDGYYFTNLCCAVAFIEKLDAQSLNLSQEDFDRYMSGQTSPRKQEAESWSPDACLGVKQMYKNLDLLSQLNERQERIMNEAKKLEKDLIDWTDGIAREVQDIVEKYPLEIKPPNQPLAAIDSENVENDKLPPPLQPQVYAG
UniProt Q96S59, whole entry, looked up: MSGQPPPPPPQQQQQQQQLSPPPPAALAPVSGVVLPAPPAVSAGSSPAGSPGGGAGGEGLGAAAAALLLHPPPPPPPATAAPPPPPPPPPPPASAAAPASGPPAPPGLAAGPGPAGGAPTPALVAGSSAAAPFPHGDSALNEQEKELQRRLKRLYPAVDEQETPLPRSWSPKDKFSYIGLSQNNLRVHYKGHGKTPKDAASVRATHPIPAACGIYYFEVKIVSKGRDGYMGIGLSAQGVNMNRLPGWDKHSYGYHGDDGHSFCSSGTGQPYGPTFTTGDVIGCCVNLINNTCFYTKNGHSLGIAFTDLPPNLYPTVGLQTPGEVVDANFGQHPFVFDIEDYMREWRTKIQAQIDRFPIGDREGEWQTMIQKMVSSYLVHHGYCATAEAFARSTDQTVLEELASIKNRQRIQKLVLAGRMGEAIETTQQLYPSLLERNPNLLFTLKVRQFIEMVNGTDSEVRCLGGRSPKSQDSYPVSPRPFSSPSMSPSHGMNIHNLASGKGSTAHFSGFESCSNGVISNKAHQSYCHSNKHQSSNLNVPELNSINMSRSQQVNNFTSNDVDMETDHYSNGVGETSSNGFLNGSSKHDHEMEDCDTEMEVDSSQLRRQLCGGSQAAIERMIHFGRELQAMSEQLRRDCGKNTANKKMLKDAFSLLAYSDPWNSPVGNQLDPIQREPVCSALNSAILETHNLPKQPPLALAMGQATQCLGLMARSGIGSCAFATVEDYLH
UniProt P61026: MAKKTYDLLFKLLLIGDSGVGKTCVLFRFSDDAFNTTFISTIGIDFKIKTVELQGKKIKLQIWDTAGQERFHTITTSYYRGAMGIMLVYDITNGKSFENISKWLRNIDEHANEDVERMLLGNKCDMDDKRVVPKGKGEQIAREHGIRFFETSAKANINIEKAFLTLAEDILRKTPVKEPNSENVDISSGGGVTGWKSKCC
UniProt Q3YEC7: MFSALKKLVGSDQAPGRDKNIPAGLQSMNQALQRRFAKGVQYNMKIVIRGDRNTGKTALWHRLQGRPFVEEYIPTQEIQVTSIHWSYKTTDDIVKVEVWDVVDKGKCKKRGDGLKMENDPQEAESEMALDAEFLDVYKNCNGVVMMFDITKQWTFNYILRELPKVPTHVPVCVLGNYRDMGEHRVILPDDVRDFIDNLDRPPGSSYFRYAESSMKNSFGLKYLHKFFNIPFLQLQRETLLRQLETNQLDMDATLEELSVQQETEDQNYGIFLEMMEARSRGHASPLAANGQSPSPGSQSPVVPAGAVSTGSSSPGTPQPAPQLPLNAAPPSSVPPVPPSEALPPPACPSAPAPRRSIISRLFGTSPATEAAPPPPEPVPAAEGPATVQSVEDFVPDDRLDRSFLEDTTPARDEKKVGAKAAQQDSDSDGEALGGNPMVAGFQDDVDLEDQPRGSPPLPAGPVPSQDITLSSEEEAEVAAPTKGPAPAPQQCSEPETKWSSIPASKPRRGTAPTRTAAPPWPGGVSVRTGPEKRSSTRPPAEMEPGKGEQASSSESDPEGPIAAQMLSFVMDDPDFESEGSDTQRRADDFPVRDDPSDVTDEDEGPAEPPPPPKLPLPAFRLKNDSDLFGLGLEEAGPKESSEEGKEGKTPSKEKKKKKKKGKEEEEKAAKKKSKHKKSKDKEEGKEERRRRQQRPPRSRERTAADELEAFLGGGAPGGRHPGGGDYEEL
UniProt O60216: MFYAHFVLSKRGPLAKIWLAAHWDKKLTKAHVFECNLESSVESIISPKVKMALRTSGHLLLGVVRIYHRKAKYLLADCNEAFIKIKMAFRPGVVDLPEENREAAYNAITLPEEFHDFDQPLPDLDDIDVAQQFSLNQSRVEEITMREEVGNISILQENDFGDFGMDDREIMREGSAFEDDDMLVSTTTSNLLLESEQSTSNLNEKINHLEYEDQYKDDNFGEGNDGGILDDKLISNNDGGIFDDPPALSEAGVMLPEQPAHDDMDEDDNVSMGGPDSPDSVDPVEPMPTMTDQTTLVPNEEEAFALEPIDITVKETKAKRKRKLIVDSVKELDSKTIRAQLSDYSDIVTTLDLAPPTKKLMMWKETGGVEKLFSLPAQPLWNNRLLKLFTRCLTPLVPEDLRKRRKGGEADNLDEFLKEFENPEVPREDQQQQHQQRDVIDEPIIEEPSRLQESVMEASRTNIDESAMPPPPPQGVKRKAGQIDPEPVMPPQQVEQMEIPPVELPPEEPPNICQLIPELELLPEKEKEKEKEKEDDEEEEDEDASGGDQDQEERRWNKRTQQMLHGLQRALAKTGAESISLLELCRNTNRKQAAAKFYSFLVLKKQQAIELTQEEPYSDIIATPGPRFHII
UniProt Q5HYI8: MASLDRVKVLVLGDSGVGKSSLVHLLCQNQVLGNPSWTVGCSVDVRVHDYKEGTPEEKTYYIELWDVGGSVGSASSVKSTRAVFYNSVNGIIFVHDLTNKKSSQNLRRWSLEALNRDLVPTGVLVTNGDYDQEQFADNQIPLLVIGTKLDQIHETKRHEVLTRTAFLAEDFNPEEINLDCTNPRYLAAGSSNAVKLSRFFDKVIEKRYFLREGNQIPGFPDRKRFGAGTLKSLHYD
UniProt Q15042: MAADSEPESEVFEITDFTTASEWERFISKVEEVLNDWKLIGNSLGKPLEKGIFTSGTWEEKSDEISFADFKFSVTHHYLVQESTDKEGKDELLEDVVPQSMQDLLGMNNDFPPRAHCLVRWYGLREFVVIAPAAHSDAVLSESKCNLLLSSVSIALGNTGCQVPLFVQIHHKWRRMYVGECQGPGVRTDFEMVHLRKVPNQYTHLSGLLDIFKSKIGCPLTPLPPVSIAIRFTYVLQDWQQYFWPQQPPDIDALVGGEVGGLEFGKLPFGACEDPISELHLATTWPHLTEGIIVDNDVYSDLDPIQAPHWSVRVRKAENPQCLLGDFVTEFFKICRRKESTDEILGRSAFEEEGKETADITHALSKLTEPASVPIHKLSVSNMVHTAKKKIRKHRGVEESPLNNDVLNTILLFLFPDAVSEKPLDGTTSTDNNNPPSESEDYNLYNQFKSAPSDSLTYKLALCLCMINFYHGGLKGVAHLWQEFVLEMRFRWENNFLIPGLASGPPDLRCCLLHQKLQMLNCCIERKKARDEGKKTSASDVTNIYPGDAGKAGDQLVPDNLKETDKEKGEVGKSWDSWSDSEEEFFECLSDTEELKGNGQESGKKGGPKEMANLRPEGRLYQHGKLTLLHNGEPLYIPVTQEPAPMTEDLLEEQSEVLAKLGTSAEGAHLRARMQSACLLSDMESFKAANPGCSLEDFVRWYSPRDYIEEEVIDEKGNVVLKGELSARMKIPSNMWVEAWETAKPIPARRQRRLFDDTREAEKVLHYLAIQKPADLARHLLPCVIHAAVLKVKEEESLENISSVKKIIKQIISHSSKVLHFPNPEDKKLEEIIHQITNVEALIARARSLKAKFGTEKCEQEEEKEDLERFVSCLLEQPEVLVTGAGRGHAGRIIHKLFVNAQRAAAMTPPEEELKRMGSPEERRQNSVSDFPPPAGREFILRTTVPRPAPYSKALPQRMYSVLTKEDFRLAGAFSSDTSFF
UniProt Q9NX57: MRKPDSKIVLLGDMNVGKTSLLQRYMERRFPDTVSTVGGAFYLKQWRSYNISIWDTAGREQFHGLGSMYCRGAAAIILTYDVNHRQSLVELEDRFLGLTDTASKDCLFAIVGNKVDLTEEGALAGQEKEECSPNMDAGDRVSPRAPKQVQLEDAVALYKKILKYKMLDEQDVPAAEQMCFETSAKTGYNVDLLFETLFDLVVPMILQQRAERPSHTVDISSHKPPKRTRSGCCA
UniProt Q9UL26: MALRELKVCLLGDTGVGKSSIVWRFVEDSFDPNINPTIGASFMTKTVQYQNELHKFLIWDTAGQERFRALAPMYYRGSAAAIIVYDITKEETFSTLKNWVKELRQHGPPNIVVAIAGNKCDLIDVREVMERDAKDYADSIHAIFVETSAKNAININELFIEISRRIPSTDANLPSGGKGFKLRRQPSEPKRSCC
UniProt P20339: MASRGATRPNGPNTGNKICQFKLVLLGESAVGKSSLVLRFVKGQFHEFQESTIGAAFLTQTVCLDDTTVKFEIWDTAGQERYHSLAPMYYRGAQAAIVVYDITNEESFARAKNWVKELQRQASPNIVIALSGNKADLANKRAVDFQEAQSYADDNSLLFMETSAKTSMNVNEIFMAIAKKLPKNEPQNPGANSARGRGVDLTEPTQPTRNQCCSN
UniProt P61225: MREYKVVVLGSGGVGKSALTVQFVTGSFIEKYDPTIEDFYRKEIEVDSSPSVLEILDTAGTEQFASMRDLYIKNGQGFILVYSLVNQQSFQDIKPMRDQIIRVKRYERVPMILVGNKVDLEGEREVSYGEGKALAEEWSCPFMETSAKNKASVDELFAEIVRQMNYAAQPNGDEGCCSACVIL
UniProt Q7Z6M1: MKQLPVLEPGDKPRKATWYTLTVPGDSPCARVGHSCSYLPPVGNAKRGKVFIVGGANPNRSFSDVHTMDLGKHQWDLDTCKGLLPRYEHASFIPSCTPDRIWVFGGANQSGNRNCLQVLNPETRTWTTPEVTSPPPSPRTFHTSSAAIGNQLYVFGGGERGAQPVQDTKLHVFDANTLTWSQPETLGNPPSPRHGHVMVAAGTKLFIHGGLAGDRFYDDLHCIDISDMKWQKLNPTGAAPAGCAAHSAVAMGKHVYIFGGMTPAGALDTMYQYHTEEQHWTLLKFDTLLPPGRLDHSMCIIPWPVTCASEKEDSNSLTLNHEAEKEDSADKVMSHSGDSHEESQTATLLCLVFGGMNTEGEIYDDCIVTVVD

Columns and labels:
Assay in all cases: log2 fold change, soluble protein after heating vs DMSO (PISA); higher = thermal stabilisation; K562 cells, 10 uM, 30 min; active = over 0.2 and 3.5 SD of the protein, either way, in both replicates (recomputed)
[1] = compound: CC1=C(C=C(C=C1)NC(=O)C2=CC(=CC=C2)C(C)(C)C#N)NC3=CC4=C(C=C3)N=CN(C4=O)C
Method in brief: (§1)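 Aliquots of K562 cells (2×10^6 cells/mL) treated with 10 μM compound for 30 min were heated for 3 min over 48°C-58°C. After pooling and extraction in PBS with 0.5% NP-40 at 4°C, soluble protein from a 21,000xg, 90 min spin was quantified by TMTpro 16plex LC-MS/MS with channel sums equalised. Thermal stability is expressed against control samples, from duplicates, as a log2 fold change.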

[2] = compound: CC1=C(C=C(C=C1)NC(=O)C2=CC(=CC=C2)N(C)C)NC(=O)C3=CC=C(C=C3)O
Method in brief: as §1

[3] = compound: CC1=CC=C(C=C1)SC2=C3C=C(SC3=CN=C2)C(=O)N
Method in brief: as §1

[4] = compound: CC1=NC(=CC=C1)C2=C(N=C(N2)C(C)(C)C)C3=CC4=NC=CN=C4C=C3
Method in brief: as §1

[5] = compound: CCCCN(Cc1ccc(C(=O)NO)cc1)C(=O)Nc1ccccc1 [Nexturastat A]
Method in brief: as §1

[6] = compound: CCCS(=O)(=O)Nc1ccc(F)c(C(=O)c2c[nH]c3ncc(-c4ccc(Cl)cc4)cc23)c1F [vemurafenib]
Method in brief: as §1

[7] = compound: CCCS(=O)(=O)Nc1ccc(F)c(C(=O)c2c[nH]c3ncc(Cl)cc23)c1F
Method in brief: as §1

[8] = compound: CCCc1cc(C)[nH]c(=O)c1CNC(=O)c1cc(-c2ccnc(N3CCN(C)CC3)c2)cc2c1cnn2C(C)C
Method in brief: as §1

[9] = compound: CCN(CC)Cc1ccc2cc(COC(=O)Nc3ccc(C(=O)NO)cc3)ccc2c1 [givinostat]
Method in brief: as §1

[10] = compound: CCN(CCCOc1ccc2c(Nc3cc(CC(=O)Nc4cccc(F)c4)[nH]n3)ncnc2c1)CCOP(=O)(O)O [barasertib]
Method in brief: as §1

[11] = compound: CC[C@@H]1C(=O)N(C)c2cnc(Nc3ccc(C(=O)NC4CCN(C)CC4)cc3OC)nc2N1C1CCCC1
Method in brief: as §1

[12] = compound: CC[C@@H]1C(=O)N(C)c2cnc(Nc3ccc(C(=O)N[C@H]4CC[C@H](N5CCN(CC6CC6)CC5)CC4)cc3OC)nc2N1C(C)C [volasertib]
Method in brief: as §1

[13] = compound: CC[C@H](C)N1C=C(C2=C(C=C(C=C21)C3=CN=C(C=C3)N4CCNCC4)C(=O)NCC5=C(C=C(NC5=O)C)C)C
Method in brief: as §1

[14] = compound: CC[C@H](C)[C@@H](C(=O)N[C@@H]([C@@H](C)O)C(=O)N[C@@H](CC(C)C)C(=O)[C@]1(CO1)C)NC(=O)[C@H]([C@@H](C)CC)N(C)C(=O)C [epoxomicin]
Method in brief: as §1

[15] = compound: CCn1c(C(=O)N(C2CC2)C2CC2)cc2c3c(ncn3C)c(Nc3cc(C)n(C)n3)nc21
Method in brief: as §1

[16] = compound: CCn1cc(-c2ccnc3[nH]c(-c4cccc(CN(C)C)c4)cc23)c(-c2ccc(NC(=O)N(C)C)cc2)n1
Method in brief: as §1

[17] = compound: CN(C)CC(=O)Nc1ccc2[nH]c(=O)c3ccccc3c2c1
Method in brief: as §1

[18] = compound: CN(CCOC1=CC=C(C=C1)C[C@H]2C(=O)NC(=O)S2)C3=CC=CC=N3 (racemic) [rosiglitazone]
Method in brief: as §1

[19] = compound: CN1C2=C(C3=C1C(=O)N(N=C3)CC4=CC(=CC=C4)N)SC(=C2)S(=O)C
Method in brief: as §1

[20] = compound: CN1CCC(CNc2ccc3ncc(-c4cccc(OC(F)(F)F)c4)n3n2)CC1
Method in brief: as §1

Measured: log2 fold change

RAD51AP1 (UniProt Q96B01)
inactive: [1] -0.079 | [2] 0 | [3] -0.008 | [4] -0.008 | [5] 0.074 | [6] -0.038 | [7] -0.067 | [8] -0.074 | [9] 0.053 | [10] -0.008 | [11] 0.104 | [12] 0.002 | [13] -0.052 | [14] 0.072 | [15] -0.003 | [16] -0.008 | [17] -0.03 | [18] -0.001 | [19] -0.053 | [20] -0.232

RBM10 isoform 5 (UniProt P98175)
inactive: [1] 0.002 | [2] -0.021 | [3] -0.039 | [4] -0.053 | [5] 0.119 | [6] 0.018 | [7] 0 | [8] -0.105 | [9] 0.019 | [10] -0.04 | [11] 0.044 | [12] -0.18 | [13] 0.063 | [14] -0.078 | [15] -0.028 | [16] -0.036 | [17] -0.143 | [18] 0.007 | [19] 0.176 | [20] 0.131

RABGEF1 isoform 3 (UniProt Q9UJ41)
inactive: [1] -0.032 | [2] 0.069 | [3] 0.009 | [4] 0.006 | [5] 0.046 | [6] 0.015 | [7] -0.009 | [8] -0.01 | [9] -0.013 | [10] 0.005 | [11] 0.036 | [12] -0.062 | [13] 0.027 | [14] 0.066 | [15] 0.014 | [16] 0.03 | [17] -0.028 | [18] 0.012 | [19] 0.014 | [20] -0.059

RANBP9 (UniProt Q96S59)
inactive: [1] 0.013 | [2] -0.04 | [3] -0.021 | [4] 0.013 | [5] 0.05 | [6] 0.012 | [7] -0.007 | [8] 0.069 | [9] -0.017 | [10] 0.013 | [11] -0.03 | [12] -0.073 | [13] -0.018 | [14] 0.054 | [15] 0.013 | [16] -0.025 | [17] -0.013 | [18] -0.046 | [19] -0.012 | [20] 0.011

RAB10 (UniProt P61026)
inactive: [1] -0.012 | [2] 0.018 | [3] -0.021 | [4] 0.021 | [5] -0.09 | [6] 0.02 | [7] -0.022 | [8] -0.019 | [9] -0.013 | [10] 0.013 | [11] 0.069 | [12] 0.018 | [13] -0.034 | [14] -0.028 | [15] 0.05 | [16] -0.001 | [17] -0.011 | [18] 0.014 | [19] -0.064 | [20] 0.049

RBM3 (UniProt P98179)
inactive: [1] 0.021 | [2] -0.107 | [3] -0.055 | [4] -0.124 | [5] 0.223 | [6] 0.008 | [7] -0.023 | [8] 0.053 | [9] -0.054 | [10] -0.019 | [11] 0.116 | [12] 0.173 | [13] -0.049 | [14] -0.169 | [15] 0.032 | [16] 0.171 | [17] -0.107 | [18] -0.162 | [19] 0.178 | [20] 0.244

RABL6 (UniProt Q3YEC7)
inactive: [1] -0.029 | [2] -0.017 | [3] -0.017 | [4] -0.027 | [5] 0.015 | [6] -0.008 | [7] -0.007 | [8] -0.004 | [9] 0.026 | [10] 0.008 | [11] 0.031 | [12] 0.025 | [13] -0.008 | [14] -0.019 | [15] 0.014 | [16] 0.067 | [17] -0.057 | [18] 0.005 | [19] -0.009 | [20] -0.069

RAD21 (UniProt O60216)
inactive: [1] -0.016 | [2] 0.02 | [3] -0.02 | [4] -0.014 | [5] 0.049 | [6] 0.024 | [7] 0.047 | [8] -0.028 | [9] 0.006 | [10] 0 | [11] -0.019 | [12] -0.071 | [13] 0.017 | [14] 0.036 | [15] -0.017 | [16] 0.019 | [17] -0.011 | [18] -0.006 | [19] -0.059 | [20] -0.101

RABL3 (UniProt Q5HYI8)
inactive: [1] 0.019 | [2] 0.052 | [3] 0.03 | [4] 0.07 | [5] -0.146 | [6] 0.003 | [7] 0.048 | [8] -0.038 | [9] 0.001 | [10] 0.017 | [11] -0.063 | [12] -0.011 | [13] 0.01 | [14] 0.035 | [15] 0.04 | [16] -0.016 | [17] -0.046 | [18] 0.028 | [19] -0.099 | [20] -0.1

RAB3GAP1 (UniProt Q15042)
inactive: [1] 0.022 | [2] -0.06 | [3] -0.001 | [4] -0.01 | [5] 0.173 | [6] -0.021 | [7] 0.031 | [8] 0.066 | [9] 0.087 | [10] 0.013 | [11] -0.143 | [12] -0.456 | [13] 0.019 | [14] 0.019 | [15] 0.036 | [16] 0.061 | [17] 0.044 | [18] 0.068 | [19] 0.093 | [20] -0.207

RAB20 (UniProt Q9NX57)
inactive: [1] -0.003 | [2] -0.002 | [3] 0.012 | [4] 0.001 | [5] -0.079 | [6] -0.049 | [7] -0.019 | [8] 0.014 | [9] 0.008 | [10] 0.005 | [11] 0.067 | [12] 0.061 | [13] -0.036 | [14] 0.008 | [15] 0.029 | [16] 0 | [17] -0.019 | [18] -0.017 | [19] 0.006 | [20] 0.048

RAB3A (UniProt P20336)
inactive: [1] 0.066 | [2] -0.038 | [3] 0.092 | [4] -0.007 | [5] 0.05 | [6] -0.19 | [7] -0.042 | [8] -0.123 | [9] -0.01 | [10] -0.005 | [11] -0.052 | [12] 0.083 | [13] 0.061 | [14] 0.087 | [15] -0.017 | [16] -0.041 | [17] -0.003 | [18] 0.015 | [19] -0.046 | [20] 0.003

RAB22A (UniProt Q9UL26)
inactive: [1] -0.005 | [2] 0.023 | [3] 0.002 | [4] -0.035 | [5] 0.012 | [6] -0.002 | [7] 0.001 | [8] -0.01 | [9] -0.009 | [10] -0.015 | [11] 0.058 | [12] 0.045 | [13] -0.056 | [14] -0.031 | [15] 0.029 | [16] -0.074 | [17] -0.026 | [18] 0.003 | [19] -0.054 | [20] 0.037

RAB5A (UniProt P20339)
inactive: [1] 0.08 | [2] 0.078 | [3] 0.053 | [4] 0.034 | [5] -0.168 | [6] 0.089 | [7] 0.064 | [8] 0.022 | [9] 0.02 | [10] -0.017 | [11] -0.029 | [12] -0.047 | [13] 0.005 | [14] 0.024 | [15] 0.018 | [16] -0.005 | [17] 0.063 | [18] -0.001 | [19] 0.039 | [20] 0.085

RAP2B (UniProt P61225)
inactive: [1] 0.075 | [2] 0.018 | [3] -0.009 | [4] 0.01 | [5] -0.074 | [6] -0.02 | [7] -0.001 | [8] 0.018 | [9] -0.001 | [10] -0.034 | [11] 0.087 | [12] 0.087 | [13] -0.039 | [14] 0.001 | [15] 0.072 | [16] 0.021 | [17] 0.004 | [18] -0.017 | [19] -0.022 | [20] 0.208

RABEPK (UniProt Q7Z6M1)
inactive: [1] -0.03 | [2] -0.031 | [3] -0.005 | [4] -0.002 | [5] -0.038 | [6] 0.021 | [7] -0.031 | [8] -0.092 | [9] -0.05 | [10] -0.019 | [11] 0.019 | [12] 0.043 | [13] -0.045 | [14] 0.017 | [15] -0.006 | [16] -0.001 | [17] 0.025 | [18] 0.046 | [19] -0.012 | [20] -0.009

2 entries drawn at random from the list so far:
RAB5A (UniProt P20339)
inactive: [1] 0.08 | [2] 0.078 | [3] 0.053 | [4] 0.034 | [5] -0.168 | [6] 0.089 | [7] 0.064 | [8] 0.022 | [9] 0.02 | [10] -0.017 | [11] -0.029 | [12] -0.047 | [13] 0.005 | [14] 0.024 | [15] 0.018 | [16] -0.005 | [17] 0.063 | [18] -0.001 | [19] 0.039 | [20] 0.085

RAD51AP1 (UniProt Q96B01)
inactive: [1] -0.079 | [2] 0 | [3] -0.008 | [4] -0.008 | [5] 0.074 | [6] -0.038 | [7] -0.067 | [8] -0.074 | [9] 0.053 | [10] -0.008 | [11] 0.104 | [12] 0.002 | [13] -0.052 | [14] 0.072 | [15] -0.003 | [16] -0.008 | [17] -0.03 | [18] -0.001 | [19] -0.053 | [20] -0.232
